According to PubChem BioAssay AID1671190 (National Center for Advancing Translational Sciences (NCATS), 2021):
The campaign covered roughly 580,000 compounds. About 6,100 (1.1%) were called active. This list was built around the results that the source calls inconclusive (neither active nor inactive); the mix of calls is not that of the screen. Calls follow the shape of the dose curve; as a rule, active = well fitted inhibition curve with a large enough effect; inconclusive = small, poorly fitted or top-dose-only effect, or another doubt; inactive = no such curve, though single readings can be large or run the other way. Where the call is inconclusive, the potency comes from a doubtful curve fit.

Sequences of proteins named here, by UniProt entry; tags and fusion partners are left off. A change or cut given only in a name is not applied to a line headed by its entry.
UniProt P18054: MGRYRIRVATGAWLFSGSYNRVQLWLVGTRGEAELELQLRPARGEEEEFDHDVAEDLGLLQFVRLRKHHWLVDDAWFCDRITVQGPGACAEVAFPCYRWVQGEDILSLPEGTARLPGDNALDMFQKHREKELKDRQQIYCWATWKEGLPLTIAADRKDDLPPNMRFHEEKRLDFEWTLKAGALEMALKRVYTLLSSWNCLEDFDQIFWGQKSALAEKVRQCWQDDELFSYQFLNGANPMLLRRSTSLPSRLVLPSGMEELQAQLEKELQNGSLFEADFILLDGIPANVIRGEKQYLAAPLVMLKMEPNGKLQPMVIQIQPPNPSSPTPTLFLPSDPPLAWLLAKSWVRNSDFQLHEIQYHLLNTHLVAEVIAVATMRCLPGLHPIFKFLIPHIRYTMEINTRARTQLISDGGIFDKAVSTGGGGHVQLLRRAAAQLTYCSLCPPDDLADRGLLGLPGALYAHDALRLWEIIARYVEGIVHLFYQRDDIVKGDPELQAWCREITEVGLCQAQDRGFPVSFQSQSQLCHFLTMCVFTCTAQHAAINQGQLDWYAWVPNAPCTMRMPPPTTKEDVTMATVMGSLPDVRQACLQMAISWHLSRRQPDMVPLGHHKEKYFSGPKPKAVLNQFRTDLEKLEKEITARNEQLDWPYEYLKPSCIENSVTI

What follows are compounds tested against Polyunsaturated fatty acid lipoxygenase ALOX12 (Homo sapiens) (UniProt P18054) (assay: Primary qHTS assay for inhibitors of human arachidonate 12S-lipoxygenase (ALOX12): Round 2). Conditions: purified 12hLO, xylenol orange hydroperoxide absorbance; series mostly up to 108 µM.
Procedure, shortened: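 Purified human 12hLO at 150 nM in 25 mM Hepes, 0.01% Triton X-100, pH 7.0, preincubated 15 min at room temperature with compound. Reaction started with 40 uM arachidonic acid, 30 min at room temperature. Hydroperoxide measured by Fe-xylenol orange, 573/405 nm absorbance ratio.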
Potency is read from the fitted curve at half-maximal effect.

| SMILES | Potency |
| --- | --- |
| COC(=O)CCN1CCN(S(=O)(=O)c2ccc3c(c2)OCCO3)CC1 | inconclusive: 50.1 µM [inhibitor, partial curve, poor fit] |
| COc1c(Cl)cc(C(=O)Oc2cccc(C)c2)cc1Cl | inactive |
| CC(C)COc1ccc(S(=O)(=O)NNC(=O)c2cc3ccccc3o2)cc1 | active: 22.4 µM |
| CCC(=O)Nc1cccc(NC(=O)c2cnn(-c3ccccc3F)c2C)c1C | inactive |
| O=C(c1ccoc1)N1CCC(n2cc(-c3nc(-c4ccccc4)no3)nn2)CC1 | inconclusive: 39.8 µM [inhibitor, single point] |
| Cc1ccc(N2CC(c3noc(C4CCN(C(=O)c5ccccc5)CC4)n3)CC2=O)cc1 (stereo not drawn) | inactive |
| COc1cc(OC)cc(-c2c(-c3cccs3)c3cc(Br)ccc3n2C)c1 | inconclusive: 44.7 µM [inhibitor, partial curve, poor fit] |
| COc1ccc(CNc2nc(C)c([N+](=O)[O-])c(C)c2C#N)cc1 | inactive |
| CCOC(=O)C1(Cc2ccccc2C(F)(F)F)CCN(Cc2ccc(COC)o2)CC1 | inactive |
| Cc1cccc(NC(=O)Cn2nnc3sc4c(c3c2=O)CC(C)(C)OC4)c1 | inconclusive: 100 µM [inhibitor, partial curve, poor fit] |
| CCN(CCNCC(O)COc1ccccc1C(C)C)c1cccc(C)c1 (stereo not drawn) | inconclusive: 1.26 µM [inhibitor, full curve, poor fit] |
| O=C(Cn1ccc2ccccc21)NCc1ccc(Cl)cc1 | inactive |
| Cc1cc(Cl)ccc1OCC(=O)NCC1Cc2cc(-c3cnccn3)ccc2O1 (stereo not drawn) | inconclusive: 100 µM [inhibitor, single point] |
| CN(CC(=O)NC(=O)NC1CC1)c1ccc(C(C)(C)C)cc1 | inconclusive: 50.1 µM [inhibitor, partial curve, poor fit] |
| CN1CC(=O)N(CC(=O)Nc2ccc(N(C)C)cc2)c2ccccc2C1=O | inactive |
| CNC(=O)C1(NC(=O)CNC(=O)CC(C)(C)C)CCCCC1 | inactive |
| CCc1noc(-c2ccn3c(CNC(=O)Cc4ccccc4Cl)nnc3c2)n1 | inactive |
| CC1CCC(NC(=O)c2nn(C)c(=O)c3ccccc23)CC1 (stereo not drawn) | inactive |
| Cc1cccc(OCC(O)Cn2cnc3c2c(=O)n(C)c(=O)n3C)c1 (stereo not drawn) | inconclusive: 2.51 µM [inhibitor, full curve, poor fit] |
| COc1ccc2oc(C(=O)NCc3cc(OC)c(OC)cc3OC)c(C)c2c1 | inactive |
| CCOC(=O)C1=C(CNCc2ccccc2)NC(=O)NC1c1ccccc1 (stereo not drawn) | inactive |
| CC(C)(C)c1ccc(OCCC(=O)OCC(=O)Nc2ccc(N3CCOCC3)cc2)cc1 | inconclusive: 89.1 µM [inhibitor, partial curve, poor fit] |
| CCc1c(O)cc(=O)n(-c2ccccc2)c1-c1ccccc1 | inconclusive: 44.7 µM [inhibitor, partial curve, poor fit] |

| SMILES | Potency |
| --- | --- |
| COc1ccc(C2=NOC3(CC(=O)N(c4ccc(C)cc4)C3=O)C2)cc1 (stereo not drawn) | inconclusive: 79.4 µM [inhibitor, partial curve, poor fit] |
| Cc1nn(CC(=O)Nc2ccc(N3CCCC3)cc2)c(=O)c2ccccc12 | inconclusive: 79.4 µM [inhibitor, partial curve, poor fit] |
| O=C(NC1CCCCCCC1)c1ccncc1 | inconclusive: 50.1 µM [inhibitor, single point] |
| O=C(NCc1ccsc1)C1CN(c2cccc(Cl)c2)C(=O)N1 (stereo not drawn) | inconclusive: 56.2 µM [inhibitor, full curve, poor fit] |
| Cc1ccc(C(C)C)c(OCC(=O)Nc2nc3c(s2)CCCC3)c1 | inconclusive: 79.4 µM [inhibitor, partial curve, poor fit] |
| O=C(c1ccccc1F)N1CCN(c2ccc([N+](=O)[O-])c3cccnc23)CC1 | inactive |
| Oc1cccc(/C=N/N2CCN(C3c4ccccc4-c4ccccc43)CC2)c1 | inactive |
| Cn1cc2c3c(cccc31)CN(C(=O)C1CCC1)CC2 | inconclusive: 44.7 µM [inhibitor, partial curve, poor fit] |
| COc1ccc(C2(C(=O)N3CCC4(CC3)CC(N3CCCCC3)CCO4)CC2)cc1 (stereo not drawn) | inconclusive: 31.6 µM [inhibitor, partial curve, poor fit] |
| Cc1ccc2nc(-c3c[nH]c4ccccc34)c(Nc3ccccc3)n2c1 | inconclusive: 56.2 µM [inhibitor, partial curve, poor fit] |
| CCOc1cc(Br)cc(C(c2c(C(=O)O)[nH]c3ccccc23)c2c(C(=O)O)[nH]c3ccccc23)c1O | active: 5.62 µM |
| C=C[C@@H]1c2ccccc2N(S(=O)(=O)c2ccc(C)cc2)[C@H](c2ccccc2)C1(C#N)C#N | inactive |
| COc1ccc(Cl)cc1S(=O)(=O)n1c([N+](=O)[O-])cnc1C | inconclusive: 50.1 µM [inhibitor, partial curve, poor fit] |
| CCc1nc(NCC2CCCO2)c(C#N)c2c1COC(C)(C)C2 (stereo not drawn) | inconclusive: 25.1 µM [inhibitor, full curve, poor fit] |
| COc1ccc(OCC(O)CN2C(=O)c3ccccc3S2(=O)=O)cc1 (stereo not drawn) | inconclusive: 0.447 µM [inhibitor, full curve, poor fit] |
| COc1cccc(/C=N/NC(=S)NCCc2ccccc2)c1 | inconclusive: 50.1 µM [inhibitor, partial curve, poor fit] |
| Cc1cc(O)c(C(C)(C)C)cc1Sc1cc(C(C)(C)C)c(O)cc1C | inconclusive: 10 µM [inhibitor, full curve] |
| CCOc1ccc(NC(=O)c2csc3c2CCCC3)cc1 | inconclusive: 89.1 µM [inhibitor, single point] |
| c1cncc(-c2cncnc2-n2ccnc2)c1 | active: 7.94 µM |
| O=C(Cc1nn[nH]n1)Nc1ccc(F)cc1F | inconclusive: 1.58 µM [inhibitor, full curve, poor fit] |
| CC(C)c1ccc(NC(=S)NCc2cccs2)cc1 | inconclusive: 44.7 µM [inhibitor, partial curve, poor fit] |
| O=C(O)CCC(=O)CCC(=O)c1ccc(Br)cc1 | inconclusive: 141 µM [inhibitor, partial curve, poor fit] |
| C=CCSc1nc(N)c(C(=O)Nc2ccccc2C)cc1C(N)=O | inconclusive: 89.1 µM [inhibitor, single point] |

Look-ups from the results shown:
Cc1cc(O)c(C(C)(C)C)cc1Sc1cc(C(C)(C)C)c(O)cc1C – Potency: inconclusive: 10 µM [inhibitor, full curve]
O=C(O)CCC(=O)CCC(=O)c1ccc(Br)cc1 – Potency: inconclusive: 141 µM [inhibitor, partial curve, poor fit]
CCc1nc(NCC2CCCO2)c(C#N)c2c1COC(C)(C)C2 (stereo not drawn) – Potency: inconclusive: 25.1 µM [inhibitor, full curve, poor fit]
CCOc1ccc(NC(=O)c2csc3c2CCCC3)cc1 – Potency: inconclusive: 89.1 µM [inhibitor, single point]
Cn1cc2c3c(cccc31)CN(C(=O)C1CCC1)CC2 – Potency: inconclusive: 44.7 µM [inhibitor, partial curve, poor fit]

More structures.

| SMILES | Potency |
| --- | --- |
| COc1ccc(-n2nnnc2C(c2cccc(OC)c2OC)N2CCN(C/C=C/c3ccccc3)CC2)cc1 (stereo not drawn) | inconclusive: 89.1 µM [inhibitor, single point] |
| CC1(C(=O)OCc2cc(=O)oc3cc4c(cc23)CCC4)CC1(Cl)Cl (stereo not drawn) | inconclusive: 11.2 µM [inhibitor, full curve] |
| CC(NC(=O)N1CCN(c2ccccc2F)CC1)c1ccc(F)c(F)c1 (stereo not drawn) | inconclusive: 100 µM [inhibitor, partial curve, poor fit] |
| Clc1ccc(CN2CCCCCC2)cc1 | active: 0.794 µM |
| O=C(NCc1ccccc1OC(F)(F)F)c1ccccc1C(F)(F)F | inconclusive: 79.4 µM [inhibitor, partial curve, poor fit] |
| Fc1ccc(NC(=S)N[C@H]2CO[C@H]3[C@@H]2OC[C@@H]3n2nnnc2-c2ccccc2)cc1 | inconclusive: 79.4 µM [inhibitor, partial curve, poor fit] |
| Cc1nn(CC(=O)NCc2cccc(F)c2)c(=O)c2c(C)n(-c3ccc(Cl)cc3)nc12 | inconclusive: 158 µM [inhibitor, partial curve, poor fit] |
| CCN(CC)C(=O)c1cccnc1 | inconclusive: 56.2 µM [inhibitor, single point] |
| CS(=O)(=O)c1ccc2nc(NC(=O)c3ccco3)sc2c1 | inactive |
| COc1ccc(-n2cc(C(=O)NCc3ccc(Cl)cc3)c3ccccc3c2=O)cc1 | inconclusive: 63.1 µM [inhibitor, partial curve, poor fit] |
| FC(F)(F)c1cccc(NC2(c3nnnn3-c3ccccc3)CCCC2)c1 | inconclusive: 2 µM [inhibitor, full curve, poor fit] |
| O=C(CCC(=O)NNC(=O)COc1ccccc1)NCc1ccccc1 | inactive |
| O=C(Nc1nnc2n1CCS2)c1ccc(Br)o1 | inactive |
| CC1CN(C(=O)CCC(=O)NCc2cccs2)c2cc(Cl)ccc2O1 (stereo not drawn) | inconclusive: 126 µM [inhibitor, partial curve, poor fit] |
| Cc1ccc2c(c1)c1c(c(=O)n(-c3ccccc3)c(=O)n1CC(=O)NCCC1=CCCCC1)n2C | inconclusive: 63.1 µM [inhibitor, partial curve, poor fit] |
| COc1ccccc1C(=O)NCCN1CCN(c2ccccc2)CC1 | inconclusive: 25.1 µM [inhibitor, partial curve] |
| C/C(CC(C)(C)c1ccccc1)=N\NS(=O)(=O)c1ccccc1 | inactive |
| CCOc1cc(-c2nn3c(-c4ccccc4C)nnc3s2)cc(OCC)c1OCC | inconclusive: 39.8 µM [inhibitor, partial curve, poor fit] |
| Cc1ccc(CCNC(=O)c2cc3sccc3n2Cc2ccc(Cl)cc2)cc1 | inconclusive: 112 µM [inhibitor, partial curve, poor fit] |
| CC1Sc2ccc(C(=O)Nc3nc(-c4ccc(F)cc4)cs3)cc2NC1=O (stereo not drawn) | inactive |
| Nc1cc(C(=O)O)ccc1N1CCCCC1 | inactive |
| CCN1C(=O)c2ccccc2Sc2ccc(NC(=O)Nc3ccc(C(C)=O)cc3)cc21 | inconclusive: 56.2 µM [inhibitor, partial curve, poor fit] |
